Experimental data: PubChem BioAssay AID1259308 (NCATS, 2017)
Test: 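Knock-downs that increase output of a recombinant reporter protein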 (primary screen). Cell system: human HEK293 embryonic kidney cells stably expressing firefly luciferase (HEK-CMV-Luc2-Hygro). Reagents: single siRNA against human genes, 0.8 pmol siRNA per well. Timing: 72 h. Measured: 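Reporter luminescence and viable-cell signal on separate replicate plates, given as percent of non-targeting control and median/MAD z-scores, plus per-cell luciferase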. Scale: total luciferase, z-score and total luciferase, % of control: higher = more reporter protein produced; luciferase per cell, z-score: higher = more reporter output per viable cell. Active means: 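An siRNA counts as active if its total luciferase robust z-score exceeds 3; genes with two or more such siRNAs out of three were retested with fresh siRNAs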. Meaning of the calls: active = raised luciferase; inactive = no rise.
Here is one part, drawn at random, of about 59,000 reagents tested. Over the whole deposit, about 1,510 (2.6%) are marked active. 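Calls use total luciferase alone and ignore viability, so some active siRNAs may act by altering cell number.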 Further read-outs or replicates are left out here. Reagent sequences are not shown.

target gene	PubChem SID	total luciferase, z-score	total luciferase, % of control	luciferase per cell, z-score	Call
KCNJ6	SID160776178	-0.921	63.6	-0.791	inactive
KCNJ6	SID160776179	-0.287	76.2	0.76	inactive
KCNJ6	SID160776180	1.94	120	1.04	inactive
MAPK3	SID160714980	-1.23	57.5	0.557	inactive
MAPK3	SID160714981	0.0209	82.3	0.602	inactive
MAPK3	SID160714982	-0.323	75.5	0.56	inactive
ZNF778	SID160724907	-0.898	64	-0.471	inactive
ZNF778	SID160760701	-1.09	60.3	-0.164	inactive
ZNF778	SID160760702	0.0904	83.7	0.129	inactive
LACRT	SID160753552	0.328	88.4	0.1	inactive
LACRT	SID160753553	-2.34	35.4	-2.71	inactive
LACRT	SID160753554	2.49	131	2.39	inactive
CXorf58	SID160762154	0.268	87.2	-0.0372	inactive
CXorf58	SID160762155	-0.0823	80.2	1.21	inactive
CXorf58	SID160762158	0.273	87.3	0.109	inactive
FAM47C	SID160768180	-0.472	72.5	0.0492	inactive
FAM47C	SID160768182	-0.494	72.1	-0.713	inactive
FAM47C	SID160768183	1.79	118	1.43	inactive
U2AF1	SID160718503	5.46	191	4.5	active
U2AF1	SID160718504	3.64	154	2.81	active
U2AF1	SID160718505	3.58	153	3.75	active
CLPTM1L	SID160750680	-0.675	68.5	-0.489	inactive
CLPTM1L	SID160750683	0.402	89.9	0.375	inactive
CLPTM1L	SID160750684	-1.03	61.4	-0.824	inactive
OR51M1	SID160766345	0.99	102	1.31	inactive
OR51M1	SID160766346	-0.156	78.8	-0.251	inactive
OR51M1	SID160766347	0.905	99.9	0.803	inactive
TENT5A	SID160743874	-0.371	74.5	-0.337	inactive
TENT5A	SID160743875	-1.8	46	-1.23	inactive
TENT5A	SID160743876	-0.764	66.7	-0.853	inactive
KLK8	SID160724313	0.431	90.5	0.0699	inactive
KLK8	SID160730196	1.61	114	1.1	inactive
KLK8	SID160730197	-1.08	60.4	-1.97	inactive
BABAM1	SID160739028	-0.818	65.6	0.678	inactive
BABAM1	SID160739029	1.88	119	1.7	inactive
BABAM1	SID160739030	-0.0783	80.3	0.601	inactive
CDC42BPA	SID160720120	0.15	84.9	0.929	inactive
CDC42BPA	SID160720121	0.787	97.5	0.499	inactive
CDC42BPA	SID160720122	0.776	97.3	0.746	inactive
ZNF595	SID160759268	0.89	99.6	0.368	inactive
ZNF595	SID160759269	1.18	105	0.842	inactive
ZNF595	SID160759270	0.0602	83.1	-0.41	inactive
CENPL	SID160727374	0.651	94.8	0.558	inactive
CENPL	SID160754066	0.625	94.3	-0.0137	inactive
CENPL	SID160754067	-0.267	76.6	-0.503	inactive
CENPL	SID160754068	-0.151	78.9	-0.703	inactive
CENPL	SID160773580	-1.66	49	-0.614	inactive
CENPL	SID160773582	0.0271	82.4	0.171	inactive
ATP6V1G3	SID160730584	-0.0133	81.6	-0.939	inactive
ATP6V1G3	SID160756590	-0.35	74.9	-0.857	inactive
ATP6V1G3	SID160756592	0.268	87.2	-0.209	inactive
EMILIN2	SID160751624	-1.24	57.3	-0.0405	inactive
EMILIN2	SID160751625	-1.99	42.2	-1.93	inactive
EMILIN2	SID160751626	-0.678	68.4	-0.658	inactive
NELFCD	SID160740888	2.21	126	1.19	inactive
NELFCD	SID160740889	1.89	119	1.66	inactive
NELFCD	SID160740890	1.9	120	1.69	inactive
CENPI	SID160767416	0.105	84	-0.159	inactive
CENPI	SID160767427	0.0596	83.1	-0.055	inactive
CENPI	SID160767437	-2.24	37.3	-1.57	inactive
CLSTN2	SID160747418	-0.386	74.2	-0.399	inactive
CLSTN2	SID160747419	-0.806	65.8	-0.549	inactive
CLSTN2	SID160747420	0.462	91.1	0.191	inactive
TMEM179B	SID160733154	-0.843	65.1	0.341	inactive
TMEM179B	SID160765264	0.819	98.2	1.66	inactive
TMEM179B	SID160765265	-0.485	72.2	-0.0267	inactive
ZNF749	SID160765910	0.505	91.9	0.498	inactive
ZNF749	SID160765911	0.317	88.2	0.805	inactive
ZNF749	SID160765913	-0.68	68.4	-0.944	inactive
SESTD1	SID160753965	-0.26	76.7	0.215	inactive
SESTD1	SID160753966	-0.0105	81.7	-0.262	inactive
SESTD1	SID160753967	0.193	85.7	-0.00934	inactive
ARSJ	SID160731923	1.58	113	1.8	inactive
ARSJ	SID160749070	0.344	88.7	-0.175	inactive
ARSJ	SID160749071	0.727	96.3	0.403	inactive

Targets listed so far whose target name starts with N or n:
target gene	PubChem SID	total luciferase, z-score	total luciferase, % of control	luciferase per cell, z-score	Call
NELFCD	SID160740888	2.21	126	1.19	inactive
NELFCD	SID160740889	1.89	119	1.66	inactive
NELFCD	SID160740890	1.9	120	1.69	inactive
